Measurements reported in paper PMC5642575.
Results are given in words; binding and its absence hold for the method and conditions named. Binding seen in cells or lysates may run through a third protein. Some entries that bind do so weakly or less than the wild type. For some of these results: Where a sequence is shown, tags or fusion partners need not be part of it.

Sequences of proteins named here, by UniProt entry; tags and fusion partners are left off.
UniProt P35222: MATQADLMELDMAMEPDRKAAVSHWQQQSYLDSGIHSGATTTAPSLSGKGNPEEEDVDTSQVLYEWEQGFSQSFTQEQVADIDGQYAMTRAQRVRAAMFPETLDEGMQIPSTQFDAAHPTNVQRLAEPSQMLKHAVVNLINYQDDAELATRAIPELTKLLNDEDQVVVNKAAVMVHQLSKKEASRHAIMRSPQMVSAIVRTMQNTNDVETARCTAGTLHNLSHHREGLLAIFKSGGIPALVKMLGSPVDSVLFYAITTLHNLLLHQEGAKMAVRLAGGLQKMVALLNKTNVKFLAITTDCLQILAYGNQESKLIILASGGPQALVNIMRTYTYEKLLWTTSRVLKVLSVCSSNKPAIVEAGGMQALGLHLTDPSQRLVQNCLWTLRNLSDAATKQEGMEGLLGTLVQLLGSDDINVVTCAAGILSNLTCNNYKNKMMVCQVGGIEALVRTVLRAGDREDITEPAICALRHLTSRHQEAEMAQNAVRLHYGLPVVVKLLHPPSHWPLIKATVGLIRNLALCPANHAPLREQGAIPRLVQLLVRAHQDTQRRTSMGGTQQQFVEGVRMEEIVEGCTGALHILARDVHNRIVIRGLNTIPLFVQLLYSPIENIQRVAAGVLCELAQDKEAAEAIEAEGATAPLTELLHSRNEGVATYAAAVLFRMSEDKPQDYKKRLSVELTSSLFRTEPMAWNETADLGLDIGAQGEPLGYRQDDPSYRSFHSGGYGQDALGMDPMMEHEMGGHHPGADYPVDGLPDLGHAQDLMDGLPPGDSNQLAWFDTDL

Assays:
[1] = biological target: T1, myc-TFCP2 (UniProt Q12800); test: co-IP; ectopically expressed myc-TFCP2 and Flag-beta-catenin in HPAC cells; immunoprecipitation
T1 sequence: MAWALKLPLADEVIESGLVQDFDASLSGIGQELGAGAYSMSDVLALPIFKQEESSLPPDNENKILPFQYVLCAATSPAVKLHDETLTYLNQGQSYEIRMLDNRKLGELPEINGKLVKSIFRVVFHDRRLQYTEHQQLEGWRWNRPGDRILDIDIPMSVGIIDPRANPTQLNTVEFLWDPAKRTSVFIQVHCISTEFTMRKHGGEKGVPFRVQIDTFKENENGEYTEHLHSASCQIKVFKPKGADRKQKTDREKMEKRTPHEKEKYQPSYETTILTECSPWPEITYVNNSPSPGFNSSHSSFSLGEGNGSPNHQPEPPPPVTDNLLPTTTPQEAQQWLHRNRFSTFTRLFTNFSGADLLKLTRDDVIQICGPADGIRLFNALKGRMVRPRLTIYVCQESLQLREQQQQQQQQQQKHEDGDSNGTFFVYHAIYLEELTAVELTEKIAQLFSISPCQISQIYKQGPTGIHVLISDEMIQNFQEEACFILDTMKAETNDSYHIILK

[2] = biological target: T2, GST-TFCP2 fusion protein (UniProt Q12800); test: pull-down; 5 ug GST-TFCP2 fusion protein with 500 ug HPAC whole cell lysate (50 mM Tris-Cl pH 7.5, 150 mM NaCl, 0.1% NP40), 4 C over night; captured on glutathione-Sepharose-4B beads; washed three times with lysis buffer; only the target purified
T2 sequence: T1 sequence

[3] = biological target: T3, TFCP2 (endogenous) (human (endogenous in HPAC and CFPAC)) (UniProt Q12800); test: co-IP; endogenous proteins in HPAC and CFPAC cells; immunoprecipitation
T3 sequence: T1 sequence

[4] = biological target: T4, c-terminus of TFCP2 (254-503aa), myc-tagged (UniProt Q12800); test: co-IP; different TFCP2 plasmids transfected into 293T cells; 48 hours later immunoprecipitation with anti-myc antibody
T4 sequence: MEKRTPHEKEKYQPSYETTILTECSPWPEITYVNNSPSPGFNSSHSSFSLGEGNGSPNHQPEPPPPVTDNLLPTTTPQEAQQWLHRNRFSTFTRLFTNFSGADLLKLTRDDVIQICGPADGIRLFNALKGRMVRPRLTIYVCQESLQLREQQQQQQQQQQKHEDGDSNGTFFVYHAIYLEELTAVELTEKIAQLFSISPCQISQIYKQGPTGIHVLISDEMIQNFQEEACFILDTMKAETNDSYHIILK

Substance: Flag-beta-catenin (from UniProt P35222 1-781)
- binding [1]: binds

Substance: beta-catenin (endogenous) (from UniProt P35222 1-781)
- binding [2]: binds
- binding [3]: binds

Substance: beta-catenin (in 293T cells, Figure 5E) (from UniProt P35222 1-781)
- binding [4]: binds
